± gives the standard deviation of the averaged measurements. The list shows a part of the results.
Biological target: T1, UniProt P23381 and related entries
T1 sequence (whole entry): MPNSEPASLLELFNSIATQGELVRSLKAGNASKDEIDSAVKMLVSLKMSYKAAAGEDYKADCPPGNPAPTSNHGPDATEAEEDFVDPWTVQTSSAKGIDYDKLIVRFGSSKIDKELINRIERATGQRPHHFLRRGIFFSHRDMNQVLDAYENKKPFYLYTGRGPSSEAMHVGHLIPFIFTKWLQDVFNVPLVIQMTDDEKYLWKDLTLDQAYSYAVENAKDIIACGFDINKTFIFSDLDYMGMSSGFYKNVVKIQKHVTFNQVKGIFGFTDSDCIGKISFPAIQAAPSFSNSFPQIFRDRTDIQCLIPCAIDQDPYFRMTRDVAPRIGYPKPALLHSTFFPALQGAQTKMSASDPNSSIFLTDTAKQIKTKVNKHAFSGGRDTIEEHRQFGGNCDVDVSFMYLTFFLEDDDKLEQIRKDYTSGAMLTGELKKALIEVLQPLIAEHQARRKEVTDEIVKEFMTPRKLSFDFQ
Experiment: NP40-soluble protein abundance relative to vehicle (solubility fold change) (ratio); higher = more soluble protein in presence of GTP
Protocol: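 Solubility proteome profiling in Jurkat crude lysate. Lysate was treated with Mg-GTP (0.1-10 mM) for 10 min at room temperature and 3 min at 37 °C, then solubilised with 0.8% NP40 and benzonase, followed by ultracentrifugation. Proteins were quantified by TMT10 LC-MS/MS; the value is the NP40-soluble abundance relative to the NP40-processed vehicle, from 3 independent experiments.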

Nc1nc2c(ncn2[C@@H]2O[C@H](COP(=O)(O)OP(=O)(O)OP(=O)(O)O)[C@@H](O)[C@H]2O)c(=O)[nH]1 [guanosine triphosphate]
NP40-soluble protein abundance (concentration: 0.1mM): 0.985 ± 0.024 | NP40-soluble protein abundance (concentration: 0.5mM): 1 ± 0.045 | NP40-soluble protein abundance (concentration: 1mM): 0.979 ± 0.016 | NP40-soluble protein abundance (concentration: 2mM): 0.963 ± 0.027 | NP40-soluble protein abundance (concentration: 4mM): 0.946 ± 0.047 | NP40-soluble protein abundance (concentration: 6mM): 0.928 ± 0.026 | NP40-soluble protein abundance (concentration: 8mM): 0.932 ± 0.047 | NP40-soluble protein abundance (concentration: 10mM): 0.901 ± 0.055

Reference: the supplement of paper PMC6411743
